The text below walks through data of patent EP0533352A2, “Gaba receptor agonists to treat bladder instability” (LYNXVALE LIMITED, priority 1991, dated 1993).

Test [1] relates to carbachol (5x10⁻⁶M) induced muscle contraction. The test is described as follows: Carbachol mediated muscle contractions of rabbit bladder muscle strips. Type of test: cell-based. As to the method: Male Dutch rabbits weighing 800-1000g were killed and the bladder removed and placed in ice cold Krebs' solution. Muscle strips were obtained measuring approximately 8mm in length and 2mm in diameter. They were stored for a maximum of 20 hours at 4°C in oxygenated Krebs' solution before their use. The strips were suspended in a superfusion chamber (capacity 0.2ml) of the Brading and Sibley design (1983) and superfused with Krebs' solution (NaCl 124; KCl 5; MgCl₂ 1.3; NaHCO₃ 26; CaCl₂ 0.8; KH₂PO₄ 1.4 and Glucose 10 [mM] continually gassed with 95% O₂ and 5% CO₂) at 37°C and at 1ml/min. A loading tension of 0.5g was applied and the strips were allowed to equilibrate for 1 hour. The muscle strips were then stimulated with electrical field stimulation at a constant frequency to ensure that stable reproducible contractions were obtained.
Carbachol mediated muscle contractions were obtained by adding the concentration of carbachol (5x10⁻⁶ M) to the superfusion chamber and exposing the tissue for ten seconds. The effects of GABA and baclofen on carbachol mediated contractions were then observed by superfusing the tissue with the concentration of the drugs dissolved in Kreb's solution.
Statistical analysis was performed using Student's "t" test. Comparisons of the dose response curves was performed by computer curve fitting using a Hill equation. […]

The test system of test [2] is Rabbit urinary bladder smooth muscle strips. The test is described as follows: Nerve mediated contractions of rabbit urinary bladder muscle strips induced by electrical field stimulation. It counts as cell-based. The settings on record: percentage inhibition of control contraction; 10 Hz, 0.2 ms pulse width, 30V for 3 s; mean ± S.E.M.

`NCCCC(=O)O` [GABA, gamma amino butyric acid]: the “inhibition of carbachol induced contraction in the presence of TTX” value in test [1] is “did not abolish the inhibition”. Further, the “inhibition of carbachol induced muscle contraction” value in test [1] (carbachol 5x10⁻⁶M, GABA: 10 strips, not in 6 strips, baclofen: 6 strips, not in 3 strips) is “dose dependent inhibition”. The “maximum inhibition of muscle contraction induced by electrical field stimulation” value in test [2] is 32.5 (±1.9) %.
